In PubChem BioAssay AID1439 (NMMLSC, 2008):
In all, about 220,000 compounds went through this assay and about 770 (0.35%) were called active. The inconclusive results got no clear call from the source; some entries with a clear call stand among them for comparison. Rule as the data show it: active = binding response below about 49% or above about 150%; inconclusive = no clear call, values can overlap the other calls; inactive = in between.

By UniProt entry, the sequences of proteins in these tests, tags left out.
UniProt P09471, whole entry, looked up: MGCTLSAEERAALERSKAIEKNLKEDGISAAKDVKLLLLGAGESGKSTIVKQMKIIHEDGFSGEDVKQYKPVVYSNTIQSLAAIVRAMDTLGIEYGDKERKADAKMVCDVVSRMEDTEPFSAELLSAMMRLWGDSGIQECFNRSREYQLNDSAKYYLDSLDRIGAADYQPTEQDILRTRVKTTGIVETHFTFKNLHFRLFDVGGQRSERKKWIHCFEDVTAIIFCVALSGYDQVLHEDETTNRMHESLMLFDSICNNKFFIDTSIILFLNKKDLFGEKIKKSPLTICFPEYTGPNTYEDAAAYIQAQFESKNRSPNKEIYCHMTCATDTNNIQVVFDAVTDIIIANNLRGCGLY

biological target: Guanine nucleotide-binding protein G(o) subunit alpha (Homo sapiens) (UniProt P09471); assay: RGS7-Galphao binding modulators, primary screen, biochemical, multiplexed bead flow cytometry (AID 1439); settings: at 10 µM, actives lie on both sides;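 also: fluorescent Galphao held in activated GDP-AlF4 state binding bead-coupled RGS7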

| Structure (SMILES) | binding response (% of control) |
| --- | --- |
| COc1ccccc1C(=O)N(NC(=O)Oc1ccccc1)C(C)(C)C | inactive: 101% |
| COc1cccc(CC(=O)Nc2nc(-c3cc(OC)ccc3OC)cs2)c1 | inconclusive: 120% |
| O=C(CCN1C(=O)/C(=C\c2ccccc2)SC1=S)NNC(=O)c1ccncc1 | inconclusive: 120% |
| CCOc1ccc(CSCCNC(=S)Nc2ccc(OC)cc2)cc1 | inconclusive: 104% |
| O=C(N/N=C/c1ccco1)c1cc(-c2ccc(Br)s2)[nH]n1 | inconclusive: 59.1% |
| COc1cccc(NC(=O)CSc2nnc(CN3CCOCC3)n2C)c1 | active: 22.1% |
| O=C(/C=C/NNC(=O)c1ccc(Cl)cc1)c1ccccc1 | inconclusive: 95.9% |
| OCCNCc1cccc(OCc2ccc(Cl)cc2)c1 | inconclusive: 87.7% |
| CS(=O)(=O)c1[nH]nc(-c2ccccc2Cl)c1C#N | inconclusive: 96.5% |
| O=C(CCCN1C(=O)/C(=C/c2ccco2)SC1=S)Nc1cccc(C(=O)O)c1 | inconclusive: 113% |
| COCCCNC(=O)c1ccc(CS(=O)(=O)c2ccc(OC)cc2)o1 | inactive: 101% |
| OCc1nnn(-c2ccccc2)c1CO | inconclusive: 108% |
| Cc1ccc(/C=N/NC(=S)NCCc2ccccc2)s1 | inconclusive: 113% |
| COc1ccccc1N=C1SC(C(=O)Nc2cccc(Cl)c2Cl)C(N)=C1C(N)=O (stereo unspecified) | inconclusive: 91.3% |
| O=S(=O)(c1ccc(-c2ccccc2)cc1)N1CCCC1 | inactive: 106% |
| Cn1cc(/C=N/Nc2ccccc2)c2ccccc21 | inconclusive: 120% |
| C/C=C\C(=O)Nc1cccc(C2=NOC3(C2)C[C@@H](C(N)=O)N(C(=O)COc2ccc(Cl)cc2)C3)c1 (stereo partly specified) | inconclusive: 93.9% |
| Cc1ccc(N2CC(c3nc4ccccc4n3C)CC2=O)cc1 (stereo unspecified) | inconclusive: 21.7% |
| COc1ccc(N2C(=O)CC(N(CCc3ccccc3)C(=O)c3ccccc3)C2=O)cc1 (stereo unspecified) | inconclusive: 105% |

| Structure (SMILES) | binding response (% of control) |
| --- | --- |
| CCCn1c(SCC(=O)Nc2ccccc2Cl)n[nH]c1=O | inconclusive: 115% |
| COC1=C(OC)c2ccccc2C(C(=O)O)N/C1=C(/C)Nc1ccncc1 (stereo unspecified) | inactive: 102% |
| CCCCN(C(=O)c1cccc(S(=O)(=O)N2CCOCC2)c1)c1c(N)n(CCC)c(=O)[nH]c1=O | inconclusive: 133% |
| CC1(C)CC(=O)C=C(NNC(=O)c2ccc(N)cc2)C1 | inactive: 96.5% |
| NC(=O)C(Cc1ccccc1)N1C(=O)c2ccccc2C1=O (stereo unspecified) | inconclusive: 95.7% |
| CCOC(=O)c1c(/N=C/c2ccc(C)cc2O)sc2c1CCN(C)C2 | inconclusive: 44.6% |
| O=C(NC(C(=O)O)c1ccccc1)c1ccc(S(=O)(=O)N2CCOCC2)cc1 (stereo unspecified) | inactive: 102% |
| S=c1[nH]nc(-c2cccs2)n1/N=C/c1cn(-c2ccccc2)nc1-c1ccccc1 | inconclusive: 47.9% |
| O=C(CN(Cc1ccccc1)S(=O)(=O)c1ccccc1)N1CCOCC1 | inactive: 100% |
| O=C(Nc1cccc([N+](=O)[O-])c1)c1ccn[nH]1 | inactive: 102% |
| COc1ccc(-c2cc(C(=O)Nc3ccc(S(=O)(=O)Nc4onc(C)c4C)cc3)c3ccccc3n2)cc1 | inconclusive: 93.9% |
| NS(=O)(=O)c1ccc(CNC(=O)CCSCCC(=O)NCc2ccc(S(N)(=O)=O)cc2)cc1 | inactive: 91% |
| CCOC(=O)c1csc(NC(=O)c2cc3ccccc3o2)n1 | inconclusive: 82.3% |
| COC(=O)c1ccc(COc2ccc(/C=N/N3CCN(C)CC3)cc2)cc1 | inconclusive: 100% |
| Cc1ccc(S(=O)(=O)CCSc2n[nH]c(=O)n2-c2ccc3c(c2)OCCO3)cc1 | inconclusive: 110% |
| COc1ccc(N/C=C/C(=O)c2ccc(Cl)cc2)cc1 | inactive: 125% |
| O=C(CCCCCNC(=O)c1ccccc1)N/N=C/c1ccc(F)cc1 | inconclusive: 108% |
| O=C(CN1CCN(c2cccc(Cl)c2)CC1)Nc1nccs1 | inconclusive: 106% |
| COc1ccc(C(CCNC(C)c2ccccc2)C(C)C)cc1 (stereo unspecified) | inconclusive: 98.9% |

| Structure (SMILES) | binding response (% of control) |
| --- | --- |
| CCOC(=O)c1cnc(-c2ccc(C(F)(F)F)cn2)[nH]c1=O | inconclusive: 26% |
| CCn1c2ccccc2c2cc(/C=N/O)ccc21 | inconclusive: 89.8% |
| Cc1noc(C)c1COc1cccc(C(=O)OC(C)C#N)c1 (stereo unspecified) | inconclusive: 112% |
| O=C(N/N=C/c1ccccn1)C(=O)N1CCCCCC1 | inconclusive: 108% |
| C#CCOCCOCCOCCNc1nc(N2CCN(C(=O)[C@H]([C@@H](C)CC)n3cc([C@@H](N)CC(C)C)nn3)CC2)nc(N2CCN(C(=O)[C@H](Cc3cc4ccccc4[nH]3)n3cc([C@@H](N)CC(C)C)nn3)CC2)n1 | inconclusive: 57.5% |
| O=c1[nH]nc(SCc2ccccc2)n1C1CC2C=CC1C2 (stereo unspecified) | inconclusive: 105% |
| COc1ccc(-c2nnc(OCc3ccccc3)c3ccccc23)cc1 | inactive: 97.6% |
| CN(C)CCn1c2ccccc2c2nc3ccc([N+](=O)[O-])cc3cc21 | inconclusive: 91.4% |
| CCOC(=O)C1CCN(CC(O)COCc2cccs2)CC1 (stereo unspecified) | inconclusive: 112% |
| Nc1nc(NCC2CCCO2)nc(Nc2ccc(Cl)cc2)c1[N+](=O)[O-] (stereo unspecified) | inconclusive: 71.2% |
| COc1ccc(C2/C=C\CN(C(=O)C3CC3)[C@H](Cc3ccccc3)C(=O)N2Cc2ccc(F)cc2)cc1 (stereo partly specified) | inconclusive: 65.5% |
| N=C(SC1CC(=O)N(c2ccc(F)cc2)C1=O)N1N=C(c2ccccc2)CC1c1ccccc1 (stereo unspecified) | inconclusive: 105% |
| CC(C)CC(=O)NC(=S)Nc1ccc(CN2CCOCC2)cc1 | inconclusive: 110% |
| Cc1ccc(C2=NN(S(=O)(=O)c3ccccc3)C(c3ccccc3O)C2)cc1 (stereo unspecified) | inactive: 102% |
| COc1ccc(-c2ccc([C@H]3[C@H]4C=CC[C@@H](C)[C@@H]4C(=O)N3Cc3ccccc3)c(F)c2)cc1C | inconclusive: 104% |
| COc1cc(/C=N/NC(=O)c2cccs2)ccc1O | inconclusive: 129% |
| COc1ccc(N2CCN(C(=O)CCNC(=O)Cn3ccc4ccccc4c3=O)CC2)cc1 | inconclusive: 100% |
| NC(=O)C1(N2CCCCC2)CCN(C(=S)Nc2cccc(Cl)c2)CC1 | inactive: 107% |

Taken from the results shown for reference:

| Structure (SMILES) | binding response (% of control) |
| --- | --- |
| CCOC(=O)C1CCN(CC(O)COCc2cccs2)CC1 (stereo unspecified) | inconclusive: 112% |
| Nc1nc(NCC2CCCO2)nc(Nc2ccc(Cl)cc2)c1[N+](=O)[O-] (stereo unspecified) | inconclusive: 71.2% |
| COc1ccc(C2/C=C\CN(C(=O)C3CC3)[C@H](Cc3ccccc3)C(=O)N2Cc2ccc(F)cc2)cc1 (stereo partly specified) | inconclusive: 65.5% |
